log2 fold change data for 36 targets are collected here from the supplement of paper PMC10849652.

Protein sequences, listed by entry. Tags and fused reporters are not part of them. Lines headed by an entry give the natural chain unless they say otherwise; changes in a name come on top.
UniProt Q9NQG1: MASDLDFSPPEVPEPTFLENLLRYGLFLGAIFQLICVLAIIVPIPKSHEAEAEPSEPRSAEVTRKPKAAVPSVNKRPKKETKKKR
UniProt O60307: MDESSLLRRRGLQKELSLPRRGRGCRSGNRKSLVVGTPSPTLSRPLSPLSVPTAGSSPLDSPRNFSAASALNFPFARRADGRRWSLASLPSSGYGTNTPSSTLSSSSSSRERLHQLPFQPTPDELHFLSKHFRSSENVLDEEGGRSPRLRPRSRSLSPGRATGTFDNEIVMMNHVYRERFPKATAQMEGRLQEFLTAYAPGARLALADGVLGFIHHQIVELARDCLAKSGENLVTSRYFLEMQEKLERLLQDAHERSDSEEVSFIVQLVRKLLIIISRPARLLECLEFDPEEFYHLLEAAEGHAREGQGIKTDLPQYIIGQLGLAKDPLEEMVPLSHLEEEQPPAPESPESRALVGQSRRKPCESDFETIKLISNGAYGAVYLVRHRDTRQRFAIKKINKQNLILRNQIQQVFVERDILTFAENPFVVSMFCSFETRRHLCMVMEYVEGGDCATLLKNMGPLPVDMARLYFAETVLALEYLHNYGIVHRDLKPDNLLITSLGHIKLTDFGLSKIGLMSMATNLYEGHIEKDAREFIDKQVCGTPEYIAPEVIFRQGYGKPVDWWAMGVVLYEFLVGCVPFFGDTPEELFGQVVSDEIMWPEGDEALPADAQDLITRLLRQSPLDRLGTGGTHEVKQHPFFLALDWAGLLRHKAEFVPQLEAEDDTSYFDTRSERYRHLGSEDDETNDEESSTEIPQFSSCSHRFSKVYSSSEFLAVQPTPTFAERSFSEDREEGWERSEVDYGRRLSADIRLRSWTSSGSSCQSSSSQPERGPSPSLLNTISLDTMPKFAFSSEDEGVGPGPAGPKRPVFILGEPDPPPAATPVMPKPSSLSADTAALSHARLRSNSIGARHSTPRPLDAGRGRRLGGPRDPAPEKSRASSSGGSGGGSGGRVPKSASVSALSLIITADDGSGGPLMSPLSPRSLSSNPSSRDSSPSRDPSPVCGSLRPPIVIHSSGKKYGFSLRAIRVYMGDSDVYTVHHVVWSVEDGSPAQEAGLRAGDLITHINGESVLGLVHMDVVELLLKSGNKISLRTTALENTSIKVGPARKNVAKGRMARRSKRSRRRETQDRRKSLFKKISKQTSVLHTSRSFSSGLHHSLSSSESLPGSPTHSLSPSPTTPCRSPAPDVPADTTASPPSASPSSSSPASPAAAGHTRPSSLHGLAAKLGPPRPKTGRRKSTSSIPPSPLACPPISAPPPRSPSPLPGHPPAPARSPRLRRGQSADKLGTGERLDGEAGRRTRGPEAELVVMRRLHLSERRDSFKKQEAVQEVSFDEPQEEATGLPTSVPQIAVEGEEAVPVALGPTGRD
UniProt Q9BPZ7, whole entry, looked up: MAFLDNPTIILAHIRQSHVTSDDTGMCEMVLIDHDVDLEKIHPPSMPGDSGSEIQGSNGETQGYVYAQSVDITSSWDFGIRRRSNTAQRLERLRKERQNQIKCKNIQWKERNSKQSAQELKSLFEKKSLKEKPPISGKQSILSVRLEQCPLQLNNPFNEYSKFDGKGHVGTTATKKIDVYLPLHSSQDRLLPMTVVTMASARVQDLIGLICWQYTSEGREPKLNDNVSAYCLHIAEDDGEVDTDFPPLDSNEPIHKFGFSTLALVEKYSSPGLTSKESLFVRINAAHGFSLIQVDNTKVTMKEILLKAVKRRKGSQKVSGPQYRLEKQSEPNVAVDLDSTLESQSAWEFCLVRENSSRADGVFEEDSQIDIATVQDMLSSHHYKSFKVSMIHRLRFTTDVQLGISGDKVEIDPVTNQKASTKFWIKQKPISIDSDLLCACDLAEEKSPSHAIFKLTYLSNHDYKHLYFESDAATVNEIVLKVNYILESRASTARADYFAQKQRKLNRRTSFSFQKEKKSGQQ
UniProt Q96QZ7: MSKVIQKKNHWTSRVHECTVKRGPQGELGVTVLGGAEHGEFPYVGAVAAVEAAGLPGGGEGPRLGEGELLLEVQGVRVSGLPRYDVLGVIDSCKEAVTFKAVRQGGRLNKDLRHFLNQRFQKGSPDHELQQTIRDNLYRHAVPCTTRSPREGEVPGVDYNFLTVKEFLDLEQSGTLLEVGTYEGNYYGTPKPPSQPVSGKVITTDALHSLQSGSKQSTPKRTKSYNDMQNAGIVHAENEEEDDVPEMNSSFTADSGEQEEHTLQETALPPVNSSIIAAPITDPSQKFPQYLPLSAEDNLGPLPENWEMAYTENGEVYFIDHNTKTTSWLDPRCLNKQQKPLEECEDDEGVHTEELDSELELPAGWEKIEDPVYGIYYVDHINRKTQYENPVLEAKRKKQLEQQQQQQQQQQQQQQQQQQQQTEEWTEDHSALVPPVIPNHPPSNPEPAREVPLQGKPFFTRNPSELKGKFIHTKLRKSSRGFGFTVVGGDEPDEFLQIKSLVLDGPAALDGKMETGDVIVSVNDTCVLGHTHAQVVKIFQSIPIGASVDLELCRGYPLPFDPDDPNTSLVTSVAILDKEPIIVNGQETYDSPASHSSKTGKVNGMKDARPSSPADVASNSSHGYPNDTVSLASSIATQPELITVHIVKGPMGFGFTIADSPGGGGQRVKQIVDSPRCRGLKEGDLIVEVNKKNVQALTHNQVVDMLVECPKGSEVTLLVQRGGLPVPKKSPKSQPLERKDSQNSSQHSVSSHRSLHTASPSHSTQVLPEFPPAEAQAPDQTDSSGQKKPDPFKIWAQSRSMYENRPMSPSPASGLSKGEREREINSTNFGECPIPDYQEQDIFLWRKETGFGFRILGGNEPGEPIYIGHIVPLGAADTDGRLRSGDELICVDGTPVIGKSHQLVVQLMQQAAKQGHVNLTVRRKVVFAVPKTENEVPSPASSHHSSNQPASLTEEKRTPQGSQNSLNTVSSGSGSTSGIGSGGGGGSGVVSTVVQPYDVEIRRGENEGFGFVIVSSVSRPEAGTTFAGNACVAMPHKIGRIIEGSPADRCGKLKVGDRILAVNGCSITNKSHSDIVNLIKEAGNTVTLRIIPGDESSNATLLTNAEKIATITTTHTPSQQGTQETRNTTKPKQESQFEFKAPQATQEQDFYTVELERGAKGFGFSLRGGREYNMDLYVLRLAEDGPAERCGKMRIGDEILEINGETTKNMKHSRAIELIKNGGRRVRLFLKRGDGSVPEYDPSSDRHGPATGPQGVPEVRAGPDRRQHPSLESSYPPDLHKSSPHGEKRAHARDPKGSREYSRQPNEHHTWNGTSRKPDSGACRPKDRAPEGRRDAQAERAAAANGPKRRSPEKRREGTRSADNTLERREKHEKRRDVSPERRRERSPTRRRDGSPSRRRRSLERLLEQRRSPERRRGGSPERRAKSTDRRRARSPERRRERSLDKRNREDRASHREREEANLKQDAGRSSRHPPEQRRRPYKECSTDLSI
UniProt Q8N2S1: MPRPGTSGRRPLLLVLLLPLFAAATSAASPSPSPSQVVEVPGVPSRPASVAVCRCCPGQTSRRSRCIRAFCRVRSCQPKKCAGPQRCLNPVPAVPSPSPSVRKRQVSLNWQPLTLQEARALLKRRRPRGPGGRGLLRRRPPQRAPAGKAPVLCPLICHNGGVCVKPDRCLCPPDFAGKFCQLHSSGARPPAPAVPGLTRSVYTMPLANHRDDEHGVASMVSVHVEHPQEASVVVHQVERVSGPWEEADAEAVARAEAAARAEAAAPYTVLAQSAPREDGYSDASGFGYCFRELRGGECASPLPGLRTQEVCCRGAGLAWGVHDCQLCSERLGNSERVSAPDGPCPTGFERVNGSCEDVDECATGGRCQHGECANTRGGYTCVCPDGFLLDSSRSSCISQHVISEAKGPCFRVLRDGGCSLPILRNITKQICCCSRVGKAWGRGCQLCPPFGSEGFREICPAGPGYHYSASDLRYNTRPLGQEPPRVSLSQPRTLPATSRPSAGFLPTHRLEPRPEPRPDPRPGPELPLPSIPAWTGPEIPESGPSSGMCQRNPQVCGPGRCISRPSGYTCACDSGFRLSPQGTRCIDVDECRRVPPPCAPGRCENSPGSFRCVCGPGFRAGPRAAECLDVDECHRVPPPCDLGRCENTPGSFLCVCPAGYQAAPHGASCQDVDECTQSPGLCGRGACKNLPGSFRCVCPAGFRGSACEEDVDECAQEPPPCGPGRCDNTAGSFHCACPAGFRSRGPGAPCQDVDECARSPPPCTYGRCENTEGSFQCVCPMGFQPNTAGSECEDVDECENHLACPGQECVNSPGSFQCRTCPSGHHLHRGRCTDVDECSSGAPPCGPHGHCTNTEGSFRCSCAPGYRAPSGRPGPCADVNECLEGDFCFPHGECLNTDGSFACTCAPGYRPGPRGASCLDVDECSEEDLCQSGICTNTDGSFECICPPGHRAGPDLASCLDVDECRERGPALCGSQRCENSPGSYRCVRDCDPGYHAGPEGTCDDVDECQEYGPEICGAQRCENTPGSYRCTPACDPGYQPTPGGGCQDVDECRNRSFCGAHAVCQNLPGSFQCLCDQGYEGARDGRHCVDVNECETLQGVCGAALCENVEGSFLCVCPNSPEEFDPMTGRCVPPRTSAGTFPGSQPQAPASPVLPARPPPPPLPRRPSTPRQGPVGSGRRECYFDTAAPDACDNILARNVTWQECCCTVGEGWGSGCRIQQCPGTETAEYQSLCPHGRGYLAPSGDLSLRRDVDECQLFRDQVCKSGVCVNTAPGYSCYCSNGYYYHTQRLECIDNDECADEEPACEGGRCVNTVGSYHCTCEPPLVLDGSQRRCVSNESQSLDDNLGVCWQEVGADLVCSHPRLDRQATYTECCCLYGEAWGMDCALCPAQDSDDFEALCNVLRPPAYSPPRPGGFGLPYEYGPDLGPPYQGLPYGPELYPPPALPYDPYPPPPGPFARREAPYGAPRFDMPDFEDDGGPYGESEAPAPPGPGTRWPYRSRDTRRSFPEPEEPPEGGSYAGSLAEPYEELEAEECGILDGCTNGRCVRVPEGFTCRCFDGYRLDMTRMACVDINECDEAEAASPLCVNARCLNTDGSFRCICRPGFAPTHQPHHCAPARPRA
UniProt Q9UI95, whole entry, looked up: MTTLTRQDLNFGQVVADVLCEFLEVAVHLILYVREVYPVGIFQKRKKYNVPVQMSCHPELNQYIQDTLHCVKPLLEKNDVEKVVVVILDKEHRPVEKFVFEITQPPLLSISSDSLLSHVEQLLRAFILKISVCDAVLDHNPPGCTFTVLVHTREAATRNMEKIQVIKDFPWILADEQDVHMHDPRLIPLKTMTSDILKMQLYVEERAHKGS
UniProt P07948: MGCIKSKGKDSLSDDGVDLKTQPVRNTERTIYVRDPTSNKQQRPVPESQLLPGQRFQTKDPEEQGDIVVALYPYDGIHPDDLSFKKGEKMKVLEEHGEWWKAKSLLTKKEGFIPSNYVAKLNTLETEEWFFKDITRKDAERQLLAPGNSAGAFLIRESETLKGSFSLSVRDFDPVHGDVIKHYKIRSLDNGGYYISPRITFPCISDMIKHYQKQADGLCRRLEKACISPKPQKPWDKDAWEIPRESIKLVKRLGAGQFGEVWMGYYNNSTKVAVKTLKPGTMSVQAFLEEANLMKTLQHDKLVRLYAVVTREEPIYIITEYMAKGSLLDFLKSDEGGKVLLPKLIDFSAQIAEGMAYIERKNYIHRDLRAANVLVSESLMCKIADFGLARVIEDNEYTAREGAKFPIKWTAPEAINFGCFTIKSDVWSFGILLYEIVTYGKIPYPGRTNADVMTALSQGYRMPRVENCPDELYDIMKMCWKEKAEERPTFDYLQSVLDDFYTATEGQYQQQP
UniProt Q8WZA0: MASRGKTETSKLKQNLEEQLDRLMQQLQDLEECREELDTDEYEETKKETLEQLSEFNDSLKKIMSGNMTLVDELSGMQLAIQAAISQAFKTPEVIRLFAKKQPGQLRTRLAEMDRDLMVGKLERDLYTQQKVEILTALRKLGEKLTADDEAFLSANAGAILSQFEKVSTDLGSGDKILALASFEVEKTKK
UniProt P43357, whole entry, looked up: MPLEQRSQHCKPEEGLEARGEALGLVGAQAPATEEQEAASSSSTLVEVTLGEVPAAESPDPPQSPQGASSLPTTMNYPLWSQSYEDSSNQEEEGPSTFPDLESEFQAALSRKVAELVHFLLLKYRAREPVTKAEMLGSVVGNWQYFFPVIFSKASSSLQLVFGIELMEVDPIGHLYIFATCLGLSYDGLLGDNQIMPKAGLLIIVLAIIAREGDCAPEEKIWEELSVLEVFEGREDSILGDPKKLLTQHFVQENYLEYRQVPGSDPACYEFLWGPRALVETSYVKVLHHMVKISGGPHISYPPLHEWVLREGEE
UniProt P43365, whole entry, looked up: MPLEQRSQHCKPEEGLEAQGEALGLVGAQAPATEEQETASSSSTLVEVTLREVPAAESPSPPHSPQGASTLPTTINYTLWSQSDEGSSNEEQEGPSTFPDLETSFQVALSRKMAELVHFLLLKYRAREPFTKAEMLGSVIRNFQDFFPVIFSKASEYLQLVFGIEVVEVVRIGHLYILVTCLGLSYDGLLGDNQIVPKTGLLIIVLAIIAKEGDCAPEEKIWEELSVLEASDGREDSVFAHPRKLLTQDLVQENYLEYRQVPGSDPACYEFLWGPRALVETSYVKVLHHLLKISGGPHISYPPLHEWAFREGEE

Some of the results follow.

Compound in the first assay: O=C(O)c1ccc2c(c1)nc(Nc1cccc(Cl)c1)c1ccncc12 [silmitasertib]
The assay is described as follows: log2 fold change, soluble protein after heating vs DMSO (PISA); higher = thermal stabilisation; K562 lysate, 10 uM; active = over 0.2 and 3.5 SD of the protein, either way, in both replicates (recomputed). The method, boiled down: (§1)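 Pellets of K562 cells were dounce-homogenised in PBS pH 7.4 with 1 mM MgCl2, and the crude extract was held at 1 mg/mL protein for a 30 min treatment with 10 μM compound. Aliquots were heated for 3 min over 48°C-58°C and pooled before NP-40 was added to 0.5% at 4°C. The supernatant from 21,000xg for 90 min was quantified by TMTpro 16plex LC-MS/MS with channel sums equalised. Values are reported from duplicates as log-two fold change in thermal stability relative to solvent controls.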
In the case of MAN2B1 (UniProt O00754), the log2 fold change was inactive: 0.
Same read-out and setting: the figure for MAP4K4 isoform 3 (UniProt O95819) is inactive: 0.045; for MANBAL (UniProt Q9NQG1) it is inactive: -0.032.
The same measure, in the same setting: the value for MAST3 (UniProt O60307) was inactive: 0.078; that for MAP2K7 isoform 4 (UniProt O14733) was inactive: 0.167.
For the target LTBR (UniProt P36941), the log2 fold change is inactive: -0.153.
In the case of MAPKAP1 (UniProt Q9BPZ7), the log2 fold change is inactive: 0.187.
Regarding MARS (UniProt P56192), the log2 fold change was inactive: 0.036.
Consider MAPK11 (UniProt Q15759), for which the log2 fold change is inactive: -0.076.
For MAGI1 isoform 6 (UniProt Q96QZ7), the log2 fold change was inactive: -0.026.
Turning to MAPK15 (UniProt Q8TD08), the log2 fold change is inactive: 0.271.
LTBP1 isoform 4 (UniProt Q14766): the log2 fold change was inactive: -0.097.
As for LTBP4 (UniProt Q8N2S1), the log2 fold change is inactive: -0.038.
LYL1 (UniProt P12980): the log2 fold change was inactive: 0.081.
Still for that read-out and setting: the value for MAP4K4 isoform 6 (UniProt O95819) was inactive: 0.02; that for MAD2L2 (UniProt Q9UI95) was inactive: -0.006; that for MAFG (UniProt O15525) was inactive: -0.001.
Turning to MARS2 (UniProt Q96GW9), the log2 fold change is inactive: -0.009.
Take MAPK7 (UniProt Q13164): the log2 fold change is inactive: 0.
On to MAP3K20 isoform 2 (UniProt Q9NYL2), for which the log2 fold change was inactive: 0.036.
As for LYN isoform 2 (UniProt P07948), the log2 fold change is inactive: 0.049.
As for MAGEF1 (UniProt Q9HAY2), the log2 fold change was inactive: -0.183.
For the target MAP2K3 isoform 3 (UniProt P46734), the log2 fold change was inactive: 0.149.
As to MAGI3 isoform 1 (UniProt Q5TCQ9), the log2 fold change was inactive: 0.012.
On to MAN2B2 (UniProt Q9Y2E5), for which the log2 fold change was inactive: -0.014.
On to LZIC isoform 2 (UniProt Q8WZA0), for which the log2 fold change is inactive: -0.022.
Consider MAD1L1 (UniProt Q9Y6D9), for which the log2 fold change is inactive: -0.01.

Compound in a further assay: O=C1NC(=O)C(c2cnc3ccccn23)=C1c1cn2c3c(cc(F)cc13)CN(C(=O)N1CCCCC1)CC2
The assay is described as above. The method, boiled down:
as §1
MAN2B1 (UniProt O00754): the log2 fold change is inactive: 0.004.
For the target MAP2K7 isoform 4 (UniProt O14733), the log2 fold change is inactive: -0.051.
Take MAGEA3 (UniProt P43357): the log2 fold change was inactive: -0.038.
The same measure, in the same setting: the figure for LYPLA1, A0A087X1K9 is inactive: -0.01.
With LTBR (UniProt P36941), the log2 fold change was inactive: -0.139.
With MAP4K3 (UniProt Q8IVH8), the log2 fold change is inactive: -0.038.
Take MAPKAP1 (UniProt Q9BPZ7): the log2 fold change is inactive: -0.018.
Consider MARS (UniProt P56192), for which the log2 fold change is inactive: 0.
As to MAP3K5 (UniProt Q99683), the log2 fold change was inactive: 0.125.
The same measure, in the same setting: the value for MAPK11 (UniProt Q15759) was inactive: 0.184; that for MAGI1 isoform 6 (UniProt Q96QZ7) was inactive: 0.002.
Consider MAPK15 (UniProt Q8TD08), for which the log2 fold change was inactive: 0.311.
The same measure, in the same setting: the value for LTBP4 (UniProt Q8N2S1) was inactive: 0.017; that for MAGEA12 (UniProt P43365) was inactive: 0.012.
Same read-out and setting: the figure for LYL1 (UniProt P12980) is inactive: 0.03; for LTBP4 isoform 2 (UniProt Q8N2S1) it is inactive: -0.031; for MAD2L2 (UniProt Q9UI95) it is inactive: -0.02.
As to MACF1 (UniProt E9PLY5), the log2 fold change is inactive: -0.064.
As for MAFG (UniProt O15525), the log2 fold change was inactive: -0.074.
Consider MARS2 (UniProt Q96GW9), for which the log2 fold change was inactive: 0.019.
For the target MAP3K1 (UniProt Q13233), the log2 fold change was inactive: -0.068.
In the case of MAPK7 (UniProt Q13164), the log2 fold change is inactive: -0.01.
For MAP3K20 isoform 2 (UniProt Q9NYL2), the log2 fold change was inactive: -0.033.
Regarding LYN isoform 2 (UniProt P07948), the log2 fold change was inactive: -0.31.
Still for that read-out and setting: the value for MAP3K4 isoform 2 (UniProt Q9Y6R4) was inactive: 0.034; that for MAP2K3 isoform 3 (UniProt P46734) was inactive: 0.025; that for MAN2B2 (UniProt Q9Y2E5) was inactive: -0.005.
In the case of LZIC isoform 2 (UniProt Q8WZA0), the log2 fold change is inactive: 0.019.
On to MAD1L1 (UniProt Q9Y6D9), for which the log2 fold change is inactive: -0.04.
